Measured values reported in the supplement of paper PMC8256030.
Values joined by “and” are separate entries in the source; they are usually repeats but may differ in a detail not shown here. Equal entries are not always repeated. The list shows a part of the results. This data set is noisy: repeats of one test often differ as much as different tests do.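 HEK293T cells were given each compound shortly before transfection with a reporter in which red mCherry is followed by the SARS-CoV-2 frameshift element and then GFP in the −1 frame, so GFP appears only after frameshifting.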

The compounds below were run on SARS-CoV-2 -1 PRF reporter mCherry-FSE-GFP(-1) (assay: mCherry (red) intensity as percent of control; higher = higher upstream reporter expression). Settings: 10 µM; 24 h; HEK293T.

SMILES | mCherry [%]
C[C@]12CC[C@@H]3c4ccc(O)cc4C[C@@H](CCCCCCCCC[S+]([O-])CCCC(F)(F)C(F)(F)F)[C@H]3[C@@H]1CC[C@@H]2O (some centres undefined) | 140
CC1=C(C(=O)OC(C)C)C(c2cccc([N+](=O)[O-])c2)C(C(=O)OC2CN(C(c3ccccc3)c3ccccc3)C2)=C(N)N1 (centres undefined) [azelnidipine] | 75.5
O=C1c2c(O)cccc2C(C2OC(CO)C(O)C(O)C2O)c2cc(CO)cc(O)c21 (centres undefined) | 94.8

What follows are compounds tested on SARS-CoV-2 -1 PRF reporter mCherry-FSE-GFP(-1) (assay: percent effect, decrease of GFP/mCherry ratio (-1 PRF reporter) relative to controls; higher = stronger frameshift inhibition). Settings: 10 µM; 24 h; HEK293T.

SMILES | percent effect
CCOC(=O)NNc1ccc(N(CC)CC(C)O)nn1 (centres undefined) [cadralazine] | 3.52%
CN(Cc1cc(Br)cc(Br)c1N)C1CCCCC1 [bromhexine] | 0.113% and -1.16%
CCCc1nc2c(C)cc(-c3nc4ccccc4n3C)cc2n1Cc1ccc(-c2ccccc2C(=O)O)cc1 [telmisartan] | -1.61% and -0.567%
CC1(C)OC[C@@H]2O[C@@]3(C(=O)O)OC(C)(C)O[C@H]3[C@@H]2O1 [diprogulic acid] | -1.25%
CCCOC(=O)c1ccc(N)cc1 [risocaine] | -3.67%
CC(C)(C)C(=O)OCOC(=O)[C@@H]1N2C(=O)[C@@H](/N=C/N3CCCCCC3)[C@H]2SC1(C)C [pivmecillinam] | -5.56%
CN(C)C(=N)NC(=N)N [metformin] | 1.62%
Clc1ccc2nsnc2c1NC1=NCCN1 [tizanidine] | -8.65%
COC(=O)C1=C(C)NC(C)=C(C(=O)OC(C)C)C1c1cccc2nonc12 (centres undefined) [isradipine] | 0.964%
C=CCNC(N)=S [allylthiourea] | 0.0139%
CN1CCN(CCC(=O)N2c3ccccc3Sc3ccc(C(F)(F)F)cc32)CC1 [ftormetazine] | -6.78%

Exported as labelled records: two of the compounds above
CN(C)C(=N)NC(=N)N [metformin]
  percent effect: 1.62%
Clc1ccc2nsnc2c1NC1=NCCN1 [tizanidine]
  percent effect: -8.65%
